PubChem BioAssay AID1259308, NCATS, 2017
Test: 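Candidate targets for better recombinant protein yield in mammalian cells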 (primary screen). Cell system: human HEK293 embryonic kidney cells stably expressing firefly luciferase (HEK-CMV-Luc2-Hygro). Reagents: single siRNA against human genes, 0.8 pmol siRNA per well. Timing: 72 h. Read-out: 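Luciferase light (ONE-Glo) measured on one replicate plate set and viability (CellTiter-Glo) on the other, scaled to a negative control siRNA, with robust z-scores and luciferase per cell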. Scale: total luciferase, z-score and total luciferase, % of control: higher = more reporter protein produced. Rule for the call: 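An siRNA counts as active if its total luciferase robust z-score exceeds 3; genes with two or more such siRNAs out of three were retested with fresh siRNAs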. Calls: active = raised luciferase; inactive = no rise.
The deposit covers about 59,000 reagents; below is a part drawn at random. In the full data, about 1,510 (2.6%) were called active. 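Calls use total luciferase alone and ignore viability, so some active siRNAs may act by altering cell number.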 Further read-outs or replicates are left out here. No sequences are given here.

Against EMC4 [SID160740378], the values are total luciferase, z-score -0.268; total luciferase, % of control 76.5; inactive.
Depletion of EMC4 [SID160740379] came out at: total luciferase, z-score -0.992; total luciferase, % of control 62.2; inactive.
EMC4 [SID160740380] gave total luciferase, z-score -2.34; total luciferase, % of control 35.2; inactive.
For MCM6 [SID160777060], the entry reads total luciferase, z-score -2.16; total luciferase, % of control 39; inactive.
Silencing of MCM6 [SID160777061] resulted in: total luciferase, z-score -0.402; total luciferase, % of control 73.9; inactive.
MCM6 [SID160777063] showed total luciferase, z-score -1.02; total luciferase, % of control 61.6; inactive.
Silencing of CSTB [SID160749917] resulted in: total luciferase, z-score 0.00458; total luciferase, % of control 82; inactive.
Depletion of CSTB [SID160749928] came out at: total luciferase, z-score 2.13; total luciferase, % of control 124; inactive.
CSTB [SID160749938] gave total luciferase, z-score 0.602; total luciferase, % of control 93.9; inactive.
Knock-down of LRRC37A3 [SID160765311] gave: total luciferase, z-score -0.336; total luciferase, % of control 75.2; inactive.
For LRRC37A3 [SID160765312], the values are total luciferase, z-score 0.532; total luciferase, % of control 92.5; inactive.
Against LRRC37A3 [SID160765313] the deposit lists total luciferase, z-score -0.931; total luciferase, % of control 63.4; inactive.

2 entries from above, ordered by “total luciferase, % of control”, high to low:
MCM6 [SID160777061] → total luciferase, z-score: -0.402; total luciferase, % of control: 73.9; activity call: inactive
MCM6 [SID160777060] → total luciferase, z-score: -2.16; total luciferase, % of control: 39; activity call: inactive
